Where a name gives a salt, the structure may show the parent alone.
Assay: Regeneration (hydrolysis) of MKH-ester derivatives to MKH in S9 fractions
Type: in vitro ADME
Procedure: To assess the regeneration to the parental form, MKH, from the MKH-ester derivatives by an esterase of HCC, MKH-ACT, MKH-DMG and MKH-SUC were incubated at 37 °C in S9 fractions obtained from PLC/PRF/5 or SK-Hep-1 cells. The velocities of MK-4 generated in the S9 fractions were plotted as the amount of MKH, because MKH is rapidly oxidized to MK-4 during drug extraction and measurement. The regeneration versus […] profile was fitted by the Michaelis--Menten model (shown in Figure 4) and the kinetic parameters were calculated (Table 2). The regeneration velocities of MKH-ACT in both PLC/PRF/5 and SK-Hep-1 cells reached a plateau at about 3 μM MKH-ACT. MKH-DMG reached a plateau in PLC/PRF/5 and SK-Hep-1 cells at 25 μM and about 6 μM MKH-DMG, respectively. MKH-SUC reached a plateau in PLC/PRF/5 and SK-Hep-1 cells at about 0.6 μM and about 1.5 μM MKH-SUC, respectively. The level scale of MKH regeneration from MKH-SUC was about 100-fold higher than those of MKH-ACT and MKH-DMG.
The hydrolysis of the esters was performed at 37 °C in S9 fractions of PLC/PRF/5 and SK-Hep-1 cells after ultrasonic homogenization and centrifugation (10,000× g, 1 h) in isotonic phosphate buffer (pH 7.4). Stock solutions of each ester were made in the same manner as the cell viability assay, and the solutions were diluted with 0.1% w/v albumin in PBS. The enzymatic reactions were initiated by adding 5 μL of the diluted of each ester into amber test tubes containing 95 μL of preheated S9 fractions. A BCA protein assay (PIERCE/Thermo Fisher Scientific Inc., Waltham, MA, USA) was used to determine protein concentrations, and the final S9 concentration was adjusted to 1.0 mg of protein/mL in PBS. The solutions were incubated at 37 °C, and at appropriate times, the aliquots from the reaction were combined with an equal volume of methanol and three times volume of n-hexane. The samples were vortexed for 2 min and centrifuged at 1750× g for 10 min. The upper layer (n-hexane) was collected and evaporated under nitrogen. The residue was reconstituted with 100 μL of methanol, sonicated for 10 s and subjected to LC-MS/MS analysis as described below.
The LC-MS/MS analysis was performed with the same instrument under the same conditions as in an earlier report, except for the following MS/MS-multiple reaction monitoring (MRM) setting and retention times: MRM: m/z 532→171, [M + H]^+ MKH-ACT adduct; m/z 664→187, [M + NH4]^+ MKH-SUC adduct; retention times: MKH-ACT, 1.7 min; and MKH-SUC, 1.1 min.
For the determination of Km and Vmax for the uptake and enzymatic activation of MKH-esters, concentration-dependency data were fit to the Michaelis--Menten equation:V = Vmax·[S]/(Km + [S])(1) where V represents the velocity of action between the substrate and transportation/enzymatic reaction, [S] refers to the concentration of the substrate and Km is defined as the concentration of substrate at the half-maximal rate of action (Vmax). Data were analyzed by GraphPad Prism (GraphPad Software).

Row | SMILES | Concentration at which regeneration velocity reached a plateau (S9 of PLC/PRF/5 cells) | Concentration at which regeneration velocity reached a plateau (S9 of SK-Hep-1 cells)
1 | CC(=O)Oc1c(C)c(C/C=C(\C)CC/C=C(\C)CC/C=C(\C)CCC=C(C)C)c(OC(C)=O)c2ccccc12 [MKH-ACT, Menahydroquinone-4 1,4-bis acetate] | about 3 μM | about 3 μM
2 | CC(C)=CCC/C(C)=C/CC/C(C)=C/CC/C(C)=C/Cc1c(C)c(OC(=O)CCC(=O)O)c2ccccc2c1OC(=O)CCC(=O)O [MKH-SUC, Menahydroquinone-4 1,4-bis hemisuccinate] | about 0.6 μM | about 1.5 μM
3 | CC(C)=CCC/C(C)=C/CC/C(C)=C/CC/C(C)=C/Cc1c(C)c(OC(=O)CN(C)C)c2ccccc2c1OC(=O)CN(C)C [MKH-DMG, Menahydroquinone-4 1,4-bis-N,N-dimethylglycinate hydrochloride] | 25 µM | about 6 μM
